# Assay results taken from the supplement of paper PMC10060354, “Discovery of a small molecule ligand of FRS2 that inhibits invasion and tumor growth” (Cellular Oncology, 2022).
# Protein sequences, listed by entry. Tags and fused reporters are not part of them. Lines headed by an entry give the natural chain unless they say otherwise; changes in a name come on top.
# UniProt Q9UNL4, whole entry: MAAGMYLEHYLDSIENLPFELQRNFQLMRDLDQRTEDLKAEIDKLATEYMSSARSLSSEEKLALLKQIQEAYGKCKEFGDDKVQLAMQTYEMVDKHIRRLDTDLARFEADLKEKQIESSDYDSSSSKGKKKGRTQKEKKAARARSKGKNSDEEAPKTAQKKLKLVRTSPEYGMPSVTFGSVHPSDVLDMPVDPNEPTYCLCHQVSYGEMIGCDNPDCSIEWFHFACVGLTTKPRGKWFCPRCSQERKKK
# UniProt Q7Z2W4: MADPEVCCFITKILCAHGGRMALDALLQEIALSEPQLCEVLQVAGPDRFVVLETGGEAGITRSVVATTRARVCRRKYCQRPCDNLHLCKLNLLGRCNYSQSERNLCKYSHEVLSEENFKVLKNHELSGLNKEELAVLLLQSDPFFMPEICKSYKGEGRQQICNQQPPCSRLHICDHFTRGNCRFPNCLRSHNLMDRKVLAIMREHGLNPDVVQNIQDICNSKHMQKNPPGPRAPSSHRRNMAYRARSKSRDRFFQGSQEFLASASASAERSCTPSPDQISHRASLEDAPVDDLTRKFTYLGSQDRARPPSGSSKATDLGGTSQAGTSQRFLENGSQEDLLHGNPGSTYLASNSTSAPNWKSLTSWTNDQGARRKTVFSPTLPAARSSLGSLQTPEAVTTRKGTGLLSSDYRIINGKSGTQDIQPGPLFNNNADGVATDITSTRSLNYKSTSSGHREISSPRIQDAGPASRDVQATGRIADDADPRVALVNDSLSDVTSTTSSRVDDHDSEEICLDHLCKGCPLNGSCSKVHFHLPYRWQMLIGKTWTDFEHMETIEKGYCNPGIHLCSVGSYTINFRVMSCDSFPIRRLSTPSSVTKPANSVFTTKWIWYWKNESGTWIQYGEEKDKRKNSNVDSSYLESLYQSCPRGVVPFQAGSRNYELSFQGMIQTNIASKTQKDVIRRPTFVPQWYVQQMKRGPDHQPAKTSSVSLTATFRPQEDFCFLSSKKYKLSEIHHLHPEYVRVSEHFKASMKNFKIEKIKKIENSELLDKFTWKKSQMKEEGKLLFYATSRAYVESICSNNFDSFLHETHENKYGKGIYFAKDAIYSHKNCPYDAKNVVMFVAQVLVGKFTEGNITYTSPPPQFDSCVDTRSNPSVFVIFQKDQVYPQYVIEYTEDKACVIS
# UniProt Q9Y5U4: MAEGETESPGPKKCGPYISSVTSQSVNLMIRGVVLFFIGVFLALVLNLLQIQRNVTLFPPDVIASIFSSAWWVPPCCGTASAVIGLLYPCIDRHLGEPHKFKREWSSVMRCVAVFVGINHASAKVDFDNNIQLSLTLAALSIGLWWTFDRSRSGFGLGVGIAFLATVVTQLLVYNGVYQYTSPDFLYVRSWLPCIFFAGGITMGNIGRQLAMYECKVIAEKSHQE
# UniProt Q9BRV8: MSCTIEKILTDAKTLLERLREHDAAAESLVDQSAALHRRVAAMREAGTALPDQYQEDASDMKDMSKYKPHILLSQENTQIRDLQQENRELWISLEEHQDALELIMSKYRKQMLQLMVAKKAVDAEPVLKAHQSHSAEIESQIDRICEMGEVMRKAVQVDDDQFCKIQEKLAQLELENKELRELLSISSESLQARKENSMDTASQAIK
# UniProt Q6PHR2: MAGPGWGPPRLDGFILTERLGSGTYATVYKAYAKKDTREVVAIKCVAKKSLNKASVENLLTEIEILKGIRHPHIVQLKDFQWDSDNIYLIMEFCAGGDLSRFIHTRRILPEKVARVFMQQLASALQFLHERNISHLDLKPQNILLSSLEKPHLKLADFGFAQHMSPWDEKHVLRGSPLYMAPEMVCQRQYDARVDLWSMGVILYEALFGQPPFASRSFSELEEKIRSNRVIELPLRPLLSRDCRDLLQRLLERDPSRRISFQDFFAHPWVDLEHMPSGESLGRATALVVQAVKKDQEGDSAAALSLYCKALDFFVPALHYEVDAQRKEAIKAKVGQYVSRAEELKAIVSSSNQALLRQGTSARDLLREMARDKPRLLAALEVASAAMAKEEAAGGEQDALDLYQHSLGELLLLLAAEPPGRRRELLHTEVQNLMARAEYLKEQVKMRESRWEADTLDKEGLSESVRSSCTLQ
# UniProt Q8N4H5: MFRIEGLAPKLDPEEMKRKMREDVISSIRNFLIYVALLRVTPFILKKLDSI
# UniProt Q9BXW7: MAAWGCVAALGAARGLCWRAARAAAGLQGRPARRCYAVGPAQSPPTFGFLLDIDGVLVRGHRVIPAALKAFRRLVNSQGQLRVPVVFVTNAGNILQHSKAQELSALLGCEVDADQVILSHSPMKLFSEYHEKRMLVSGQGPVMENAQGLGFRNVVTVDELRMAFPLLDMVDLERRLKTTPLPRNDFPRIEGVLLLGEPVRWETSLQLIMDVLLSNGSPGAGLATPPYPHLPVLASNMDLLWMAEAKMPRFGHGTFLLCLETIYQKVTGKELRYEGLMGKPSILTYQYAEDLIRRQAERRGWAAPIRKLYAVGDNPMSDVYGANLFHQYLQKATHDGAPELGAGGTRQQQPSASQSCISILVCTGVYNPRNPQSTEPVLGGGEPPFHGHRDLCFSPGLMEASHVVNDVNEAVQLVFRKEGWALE
# UniProt Q96K37: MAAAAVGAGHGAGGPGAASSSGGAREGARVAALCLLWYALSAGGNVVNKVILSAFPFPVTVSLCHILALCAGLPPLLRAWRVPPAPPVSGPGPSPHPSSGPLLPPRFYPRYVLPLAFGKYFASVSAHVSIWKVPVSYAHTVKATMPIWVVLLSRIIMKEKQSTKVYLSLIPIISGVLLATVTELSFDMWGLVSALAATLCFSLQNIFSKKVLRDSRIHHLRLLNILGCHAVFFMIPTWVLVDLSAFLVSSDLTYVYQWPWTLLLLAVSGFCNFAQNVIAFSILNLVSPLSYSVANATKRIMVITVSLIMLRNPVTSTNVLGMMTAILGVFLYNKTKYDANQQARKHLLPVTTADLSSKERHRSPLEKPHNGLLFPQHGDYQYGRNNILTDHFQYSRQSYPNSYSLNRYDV
# UniProt O43598: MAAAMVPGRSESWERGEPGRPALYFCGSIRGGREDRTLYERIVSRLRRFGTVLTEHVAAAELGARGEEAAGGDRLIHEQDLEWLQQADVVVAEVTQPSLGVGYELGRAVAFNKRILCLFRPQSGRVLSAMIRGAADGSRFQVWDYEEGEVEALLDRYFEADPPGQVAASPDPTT
# UniProt Q9UNI6, whole entry: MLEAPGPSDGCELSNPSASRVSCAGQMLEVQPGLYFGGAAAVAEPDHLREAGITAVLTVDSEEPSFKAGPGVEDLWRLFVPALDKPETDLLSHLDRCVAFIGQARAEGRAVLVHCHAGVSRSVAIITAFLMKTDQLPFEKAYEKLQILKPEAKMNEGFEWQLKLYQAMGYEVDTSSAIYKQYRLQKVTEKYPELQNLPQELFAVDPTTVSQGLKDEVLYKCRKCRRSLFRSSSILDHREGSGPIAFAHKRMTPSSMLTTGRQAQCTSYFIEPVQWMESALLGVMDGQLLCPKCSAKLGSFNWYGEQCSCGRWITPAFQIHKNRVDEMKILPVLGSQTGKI
# UniProt Q16762: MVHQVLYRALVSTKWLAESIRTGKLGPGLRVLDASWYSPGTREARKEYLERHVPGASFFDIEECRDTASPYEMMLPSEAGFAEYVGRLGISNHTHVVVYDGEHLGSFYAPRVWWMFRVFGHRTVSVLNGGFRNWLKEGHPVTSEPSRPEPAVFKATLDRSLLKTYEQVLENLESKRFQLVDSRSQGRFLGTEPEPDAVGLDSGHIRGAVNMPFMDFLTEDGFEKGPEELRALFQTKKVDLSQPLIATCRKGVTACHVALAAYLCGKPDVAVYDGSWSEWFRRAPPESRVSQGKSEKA
# UniProt Q58FF6, whole entry: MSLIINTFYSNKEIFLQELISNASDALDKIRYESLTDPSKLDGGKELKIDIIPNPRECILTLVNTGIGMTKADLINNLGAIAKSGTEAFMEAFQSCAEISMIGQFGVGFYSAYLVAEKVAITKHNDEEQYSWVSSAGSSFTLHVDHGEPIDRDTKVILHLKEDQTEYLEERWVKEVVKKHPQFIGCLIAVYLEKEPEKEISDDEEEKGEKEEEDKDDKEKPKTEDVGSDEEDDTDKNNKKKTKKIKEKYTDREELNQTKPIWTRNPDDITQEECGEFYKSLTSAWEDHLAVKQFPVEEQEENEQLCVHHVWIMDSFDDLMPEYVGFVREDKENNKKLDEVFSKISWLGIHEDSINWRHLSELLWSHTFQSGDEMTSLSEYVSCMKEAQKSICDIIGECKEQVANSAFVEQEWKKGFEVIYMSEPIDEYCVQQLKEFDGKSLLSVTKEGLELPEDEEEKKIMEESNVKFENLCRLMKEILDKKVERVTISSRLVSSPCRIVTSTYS
# UniProt Q96CF2: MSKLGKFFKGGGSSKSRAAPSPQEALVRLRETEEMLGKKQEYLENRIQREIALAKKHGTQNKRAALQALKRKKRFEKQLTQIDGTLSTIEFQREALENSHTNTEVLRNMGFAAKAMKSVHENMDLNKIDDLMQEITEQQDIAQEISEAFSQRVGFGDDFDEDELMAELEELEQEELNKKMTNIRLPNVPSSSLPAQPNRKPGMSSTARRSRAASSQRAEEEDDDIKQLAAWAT
# UniProt Q9UIW2: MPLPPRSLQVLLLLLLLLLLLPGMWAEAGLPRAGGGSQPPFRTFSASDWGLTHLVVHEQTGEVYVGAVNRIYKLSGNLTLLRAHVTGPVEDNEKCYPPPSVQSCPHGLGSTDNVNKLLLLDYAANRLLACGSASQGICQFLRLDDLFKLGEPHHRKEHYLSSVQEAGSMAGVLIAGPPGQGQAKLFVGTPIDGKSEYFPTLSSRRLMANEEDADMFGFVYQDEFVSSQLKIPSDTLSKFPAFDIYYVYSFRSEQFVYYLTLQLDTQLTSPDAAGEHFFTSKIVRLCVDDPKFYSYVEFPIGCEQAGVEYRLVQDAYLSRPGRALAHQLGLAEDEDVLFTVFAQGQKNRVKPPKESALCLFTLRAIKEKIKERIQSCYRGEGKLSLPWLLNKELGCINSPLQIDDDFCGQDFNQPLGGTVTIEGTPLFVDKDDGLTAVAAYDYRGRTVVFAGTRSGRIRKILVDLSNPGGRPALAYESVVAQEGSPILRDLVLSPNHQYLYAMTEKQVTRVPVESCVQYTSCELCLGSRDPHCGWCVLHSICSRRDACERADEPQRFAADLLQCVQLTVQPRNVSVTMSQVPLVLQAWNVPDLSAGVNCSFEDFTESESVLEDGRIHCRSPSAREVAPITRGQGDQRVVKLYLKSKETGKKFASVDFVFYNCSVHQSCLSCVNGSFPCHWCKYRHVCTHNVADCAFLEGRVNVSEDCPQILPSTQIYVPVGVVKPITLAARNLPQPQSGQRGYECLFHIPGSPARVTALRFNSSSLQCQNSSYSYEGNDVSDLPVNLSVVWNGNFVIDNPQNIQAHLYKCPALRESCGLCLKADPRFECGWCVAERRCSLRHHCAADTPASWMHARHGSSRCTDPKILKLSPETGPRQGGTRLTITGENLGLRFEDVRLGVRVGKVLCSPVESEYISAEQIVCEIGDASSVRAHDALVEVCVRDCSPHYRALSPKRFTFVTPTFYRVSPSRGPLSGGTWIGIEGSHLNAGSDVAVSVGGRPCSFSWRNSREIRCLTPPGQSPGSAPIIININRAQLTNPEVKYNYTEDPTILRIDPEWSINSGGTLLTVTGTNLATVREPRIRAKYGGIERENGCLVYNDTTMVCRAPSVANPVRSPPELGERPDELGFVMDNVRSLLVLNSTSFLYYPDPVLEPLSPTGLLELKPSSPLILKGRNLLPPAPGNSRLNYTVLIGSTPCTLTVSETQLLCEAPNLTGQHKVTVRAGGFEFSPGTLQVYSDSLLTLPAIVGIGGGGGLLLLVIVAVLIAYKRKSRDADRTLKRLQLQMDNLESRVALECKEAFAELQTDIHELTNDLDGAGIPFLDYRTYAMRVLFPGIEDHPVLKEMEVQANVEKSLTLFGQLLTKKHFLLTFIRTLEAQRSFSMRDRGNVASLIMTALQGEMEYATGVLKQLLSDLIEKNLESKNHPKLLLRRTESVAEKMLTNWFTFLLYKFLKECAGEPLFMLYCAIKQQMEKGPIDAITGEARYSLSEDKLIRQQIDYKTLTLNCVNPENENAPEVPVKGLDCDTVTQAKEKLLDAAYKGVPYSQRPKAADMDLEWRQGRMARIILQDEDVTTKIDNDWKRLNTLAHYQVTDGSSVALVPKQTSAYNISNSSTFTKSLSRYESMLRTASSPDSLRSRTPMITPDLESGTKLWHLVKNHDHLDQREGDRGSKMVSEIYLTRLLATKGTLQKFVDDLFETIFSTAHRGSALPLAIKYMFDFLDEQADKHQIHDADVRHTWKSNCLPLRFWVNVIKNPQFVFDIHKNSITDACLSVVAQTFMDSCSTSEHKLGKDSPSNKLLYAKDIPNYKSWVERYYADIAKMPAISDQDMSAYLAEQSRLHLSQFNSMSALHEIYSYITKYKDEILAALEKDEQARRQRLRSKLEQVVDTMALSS
# UniProt Q9P0T7: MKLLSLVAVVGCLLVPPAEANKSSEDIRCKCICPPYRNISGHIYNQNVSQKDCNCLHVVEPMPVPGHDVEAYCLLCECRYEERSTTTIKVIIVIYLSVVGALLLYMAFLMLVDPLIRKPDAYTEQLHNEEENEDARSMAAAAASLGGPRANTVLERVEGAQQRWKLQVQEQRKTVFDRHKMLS
# Single values are uncertain, as repeats are few or missing.
# Compound: [O-][N+](C(C1=C(C(O)=C2)NC(C(C=C3)=CC=C3Cl)C4C1C=CC4)=C2Cl)=O
# Assay: melting temperature shift (compound 7 minus DMSO); higher = compound stabilises the protein
# Conditions: 10 µM
# Procedure: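 Thermal proteome profiling (TMT mass spectrometry) in intact DAOY medulloblastoma cells or DAOY lysates treated with 10 µM compound 7 or DMSO, heated at 10 temperatures from 40.5 to 73.8 °C for 3 min. Melting curves were fitted with the Bioconductor TPP package, and the melting point difference between compound and vehicle is reported per protein (single curve per condition).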
# [1] = system: DAOY cell lysate, treatment time: 20 min, 4 °C
# [2] = system: intact DAOY cells, treatment time: 90 min, 37 °C
Target,melting temperature shift [1],melting temperature shift [2]
UniProt P56377,0.231 °C,1.06 °C
RTN4 (UniProt Q9NQC3),-0.333 °C,
ROBO1 (UniProt Q9Y6N7),-1.51 °C,
FKBP10 (UniProt Q96AY3),1.61 °C,
PIGK (UniProt Q92643),1.3 °C,-0.973 °C
KYAT3 (UniProt Q6YP21),-0.562 °C,0.23 °C
PEAK1 (UniProt Q9H792),-0.328 °C,
BAG2 (UniProt O95816),-0.442 °C,0.675 °C
AKAP8 (UniProt O43823),0.208 °C,-0.433 °C
UniProt P48751,,0.394 °C
DNAJB6 (UniProt O75190),-1.34 °C,-0.0239 °C
YWHAG (UniProt P61981),-1.19 °C,1.26 °C
ZBTB10 (UniProt Q96DT7),0.841 °C,
UniProt Q9UNL4,-1.83 °C,
PRPSAP1 (UniProt Q14558),-1.07 °C,-1.08 °C
PSMD9 (UniProt O00233),1.85 °C,
NCDN (UniProt Q9UBB6),-1.27 °C,-0.436 °C
ZC3HAV1 (UniProt Q7Z2W4),0.2 °C,0.42 °C
ACP2 (UniProt P11117),1.16 °C,-1.05 °C
G6PD (UniProt P11413),-0.319 °C,-0.546 °C
HINT2 (UniProt Q9BX68),0.588 °C,-0.458 °C
UniProt Q9Y5U4,2.68 °C,
UniProt Q99569,0.851 °C,
RASA1 (UniProt P20936),-0.765 °C,-0.22 °C

Target,melting temperature shift [1],melting temperature shift [2]
UniProt Q9BRV8,-0.0199 °C,
UniProt Q5VTE0,,-1.18 °C
ULK3 (UniProt Q6PHR2),-0.755 °C,
ANLN (UniProt Q9NQW6),-0.0871 °C,-0.406 °C
ACAD8 (UniProt Q9UKU7),-1.69 °C,1.64 °C
UniProt O14782,,0.285 °C
TNRC6B (UniProt Q9UPQ9),-0.879 °C,-2.22 °C
NDC1 (UniProt Q9BTX1),1.43 °C,-0.591 °C
IDH1 (UniProt O75874),-0.499 °C,-1.67 °C
UniProt P14543,,3.07 °C
CUTA (UniProt O60888),0.24 °C,
UniProt L0R6Q1,4.86 °C,1.6 °C
UniProt Q8N4H5,1.98 °C,6.74 °C
GNPNAT1 (UniProt Q96EK6),-0.969 °C,-0.797 °C
SPATA5L1 (UniProt Q9BVQ7),-1.59 °C,1.05 °C
HACD3 (UniProt Q9P035),0.996 °C,-0.845 °C
PNKP (UniProt Q96T60),0.281 °C,1.36 °C
DENND1A (UniProt Q8TEH3),-1.12 °C,
RPL35 (UniProt P42766),0.515 °C,-0.855 °C
VPS16 (UniProt Q9H269),-0.727 °C,0.249 °C
UniProt Q9NPH0,-3.51 °C,
CECR5 (UniProt Q9BXW7),1.61 °C,-0.279 °C
HEATR5B (UniProt Q9P2D3),-0.375 °C,0.328 °C
TCEB1 (UniProt Q15369),-0.163 °C,1.04 °C

# In a second layout: results already given
Target	melting temperature shift [1]	melting temperature shift [2]
UniProt Q9BRV8	-0.0199 °C	
UniProt Q5VTE0		-1.18 °C
ULK3 (UniProt Q6PHR2)	-0.755 °C	

# (listing goes on)

Target,melting temperature shift [1],melting temperature shift [2]
RPL7A (UniProt P62424),0.766 °C,-0.401 °C
GCAT (UniProt O75600),0.941 °C,-0.135 °C
DDX18 (UniProt Q9NVP1),,1.5 °C
UniProt O95070,,-1.23 °C
DAAM1 (UniProt Q9Y4D1),0.834 °C,-0.427 °C
KIF1C (UniProt O43896),,-1.6 °C
UniProt Q9BWL3,,-1.3 °C
SNU13 (UniProt P55769),0.0388 °C,0.0334 °C
PDHX (UniProt O00330),0.621 °C,1.08 °C
SNRNP27 (UniProt Q8WVK2),1.48 °C,
OTUD6B (UniProt Q8N6M0),-0.465 °C,0.318 °C
HMMR (UniProt O75330),0.041 °C,-0.101 °C
UniProt Q14938,,-1.78 °C
SLC35E1 (UniProt Q96K37),-1.26 °C,-2.51 °C
NIT1 (UniProt Q86X76),,-5.13 °C
DNAJC17 (UniProt Q9NVM6),-0.249 °C,-0.503 °C
RNPS1 (UniProt Q15287),-0.986 °C,-0.487 °C
UniProt P58012,,-1.23 °C
UniProt P17677,-10.8 °C,
IMMT (UniProt Q16891),1.73 °C,-0.183 °C
NUP155 (UniProt O75694),-0.188 °C,-0.0935 °C
MRPL4 (UniProt Q9BYD3),0.176 °C,0.178 °C
UniProt Q9Y3D2,,-1.89 °C
UniProt O60220,-1.49 °C,

# Looked up one by one from the list above:
Target,melting temperature shift [1],melting temperature shift [2]
CUTA (UniProt O60888),0.24 °C,
UniProt Q9UNL4,-1.83 °C,
UniProt O14782,,0.285 °C
PIGK (UniProt Q92643),1.3 °C,-0.973 °C
UniProt L0R6Q1,4.86 °C,1.6 °C

# Continued.

Target,melting temperature shift [1],melting temperature shift [2]
GIT2 (UniProt Q14161),-1.31 °C,-0.374 °C
UniProt Q6PH85,,-0.45 °C
MDH1 (UniProt P40925),-1.59 °C,0.895 °C
UniProt P62072,-6.69 °C,
DNPH1 (UniProt O43598),-1.17 °C,0.744 °C
TDP1 (UniProt Q9NUW8),-0.0819 °C,-0.542 °C
BMS1 (UniProt Q14692),,0.0164 °C
PRPS2 (UniProt P11908),-0.317 °C,2.51 °C
UniProt P32455,0.0728 °C,0.207 °C
TYSND1 (UniProt Q2T9J0),-0.406 °C,
TNS1 (UniProt Q9HBL0),2.24 °C,
ACAA1 (UniProt P09110),0.384 °C,-0.316 °C
COMT (UniProt P21964),0.587 °C,0.959 °C
UniProt Q86YR5,,0.43 °C
VPRBP (UniProt Q9Y4B6),-0.194 °C,-0.489 °C
UniProt P58335,,0.561 °C
DUSP12 (UniProt Q9UNI6),0.334 °C,0.671 °C
TST (UniProt Q16762),-0.744 °C,0.569 °C
UBA1 (UniProt P22314),-0.146 °C,0.519 °C
THOC2 (UniProt Q8NI27),-0.633 °C,1.12 °C
UniProt Q9UPW6,-0.336 °C,
S100A10 (UniProt P60903),0.906 °C,-1.14 °C
ITPR3 (UniProt Q14573),2.65 °C,-0.822 °C
MARC2 (UniProt Q969Z3),-0.955 °C,-0.402 °C

Target,melting temperature shift [1],melting temperature shift [2]
HSP90AB4P (UniProt Q58FF6),-2.05 °C,0.257 °C
OCIAD1 (UniProt Q9NX40),2.17 °C,
CHMP4C (UniProt Q96CF2),,-0.788 °C
PLXNA1 (UniProt Q9UIW2),0.0924 °C,-0.329 °C
COX19 (UniProt Q49B96),,0.523 °C
MCL1 (UniProt Q07820),-0.521 °C,-2.2 °C
ABCB7 (UniProt O75027),0.0234 °C,-1.58 °C
TUBGCP3 (UniProt Q96CW5),-1.98 °C,-0.66 °C
UniProt Q9ULC5,,-0.785 °C
CTNNAL1 (UniProt Q9UBT7),0.68 °C,
UniProt O14770,-0.558 °C,
OTUD7B (UniProt Q6GQQ9),-0.667 °C,-0.278 °C
TMEM9 (UniProt Q9P0T7),-1.18 °C,
PHAX (UniProt Q9H814),-0.4 °C,-1.28 °C
UniProt Q9BQ87,,1.16 °C
PARP4 (UniProt Q9UKK3),-0.224 °C,0.999 °C
HNRNPD (UniProt Q14103),0.831 °C,0.0586 °C
CPNE3 (UniProt O75131),-0.427 °C,0.21 °C
SLC4A1AP (UniProt Q9BWU0),-0.461 °C,-0.529 °C
KIAA1033 (UniProt Q2M389),-1.14 °C,0.212 °C
UniProt Q9BWW4,1.15 °C,
